# PubChem BioAssay AID504791, Drosophila RNAi Screening Center | 2011
# Screen: 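Factors in Argonaute-based small RNA production and activity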 (primary screen)
# Cells: Drosophila S2-derived reporter cells
# Reagents: long dsRNA against Drosophila genes, about 150-250 ng dsRNA per well (siRNA assay); about 80-120 ng (miRNA assay)
# Timing: about 5 days (siRNA assay); about 4 days (miRNA assay)
# Conditions: copper sulfate induction of reporters: 25 µM (siRNA assay); 200 mM stated (miRNA assay), 1-2 days before reading
# Read-out: 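Per-well ratio of Renilla over firefly light, expressed relative to that plate's average ratio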
# Hit rule: 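a well was a first-pass pick when its plate-scaled ratio rose above 1.5 (siRNA assay) or 1.6 (miRNA assay), or dropped below 0.6; a gene counted only if two separate dsRNAs agreed on retest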
# The deposit covers about 23,000 reagents; below is a random part of those with a known target gene and a result. Over the whole deposit, 199 (0.86%) were called active. 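Plate-scaled ratios behind the calls are not deposited; printed light signals are raw; many rows marked increased or decreased are still called inactive.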 Entries without a mark were called inactive. The numbers tell different reagents against one gene apart. Names joined by + are all predicted targets of the reagent. The record does not give: the direction of the score.
predicted target,reagent no.,stable siRNA reporter change,"stable assay Renilla, run 1 (luminescence)","stable assay firefly, run 1 (luminescence)"
Tis11,1,reporter ratio raised past the hit cutoff,7543,2.63e5
Tis11,2,reporter ratio raised past the hit cutoff,1504,67280
CG18335,1,,7032,3.04e5
Sk1,1,,5120,4.51e5
CG13033,1,,7240,3.90e5
KCNQ,1,,5635,2.84e5
KCNQ,2,,5628,3.04e5
CG4707,1,,24813,1.18e6
CG1116,1,,6483,3.94e5
CG3119,1,,7955,4.80e5
EMC6,1,,6306,2.84e5
CG9445,1,,5907,4.12e5
CG17768 + LSm-4,1,,7987,3.91e5
CG10650,1,,6554,1.75e6
CG1532,1,,8477,4.07e5
Polr3K + Tcs1,1,,5504,4.46e5
CG10019,1,,5995,2.96e5
thr,1,,9929,3.98e5
ND-42,1,,6779,2.58e5
nAChRbeta1,1,,4043,3.27e5
nAChRbeta1,2,,7218,4.20e5
Ttd14,1,,9699,2.85e5
Ttd14,2,,5372,2.37e5
CG33919,1,,4435,4.19e5
CG34425,1,,6724,3.35e5
CG34425,2,,4183,1.77e5
Doc1,1,,5934,4.77e5
CG9525,1,,6902,3.56e5
Cdc6,1,,7151,4.58e5
CG7024,1,,5446,2.77e5
Asph,1,,6306,3.78e5
Asph,2,,8667,3.65e5
Ank2,1,,4606,2.96e5
Ank2,2,,6047,3.78e5
Ank2,3,,6646,3.49e5
Ank2,4,,6812,3.64e5
Ank2,5,,5956,4.82e5
